Laboratory results: patent US20090075902A1, “INHIBITING THE SIGNS OF AGING BY INHIBITING NF-KAPPA B ACTIVATION” (priority 2007, published 2009)
Where no end group is shown, it is not given here.

tested on: mouse skin; assay: PTD transduction through skin (FITC-labeled PTDs, confocal microscopy); format: in vivo; conditions: FITC-labeled PTD 5 mM in standard base cream, hairless (nude) mice, 3 hr

| Substance | Penetration of mouse skin |
| --- | --- |
| His-His-His-His-His-His (SEQ ID NO: 3) (HHHHHH; fluorescent label) [6-His, fluorescently labeled protein transduction domain] | penetrate mouse skin |
| ARFLEHGSDKAT (SEQ ID NO:6) [Con-P, fluorescently labeled protein transduction domain] | penetrate mouse skin |
| Arg-Arg-Arg-Arg-Arg-Arg (SEQ ID NO:4) [6-R] | penetrate mouse skin |
| KKKKKKKK (SEQ ID NO:5) [8K, fluorescently labeled protein transduction domain] | penetrate mouse skin |
